# Results from PubChem BioAssay AID2551 (National Center for Advancing Translational Sciences (NCATS), 2010).
# Amino acid sequences for entries named in this document (tags omitted). A change or cut given only in a name is not applied to a line headed by its entry.
# UniProt P51450: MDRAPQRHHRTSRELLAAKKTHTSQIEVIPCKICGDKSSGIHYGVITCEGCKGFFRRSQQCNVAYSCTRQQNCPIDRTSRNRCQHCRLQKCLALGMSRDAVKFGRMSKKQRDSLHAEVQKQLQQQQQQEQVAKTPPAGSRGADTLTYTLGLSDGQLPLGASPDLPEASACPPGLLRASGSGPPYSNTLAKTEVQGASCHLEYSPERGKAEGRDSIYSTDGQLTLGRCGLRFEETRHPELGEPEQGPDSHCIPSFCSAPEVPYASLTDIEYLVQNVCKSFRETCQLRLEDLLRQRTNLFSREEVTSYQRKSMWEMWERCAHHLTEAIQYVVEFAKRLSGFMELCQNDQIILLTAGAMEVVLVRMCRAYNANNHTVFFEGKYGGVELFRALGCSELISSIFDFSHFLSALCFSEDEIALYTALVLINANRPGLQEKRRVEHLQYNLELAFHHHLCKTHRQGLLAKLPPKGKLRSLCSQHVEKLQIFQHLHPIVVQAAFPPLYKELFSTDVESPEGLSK
# Screen size: about 310,000 compounds; about 17,000 (5.5%) were called active. Inconclusive means that the source gave no clear call. Such entries were picked first, then a sample of the others. Calls follow the shape of the dose curve; as a rule, active = well fitted inhibition curve with a large enough effect; inconclusive = small, poorly fitted or top-dose-only effect, or effect the other way; inactive = no such curve, though single readings can be large or run the other way. Potencies of inconclusive entries are doubtful fits and often do not repeat.
# Molecular target: Nuclear receptor ROR-gamma (Mus musculus) (UniProt P51450)
# Test: qHTS for inhibitors of ROR gamma transcriptional activity; also: nearly all actives have a fitted effect of over 60% in size
# Settings: Drosophila S2 Gal4-RORgamma UAS-luciferase reporter, 20 h; activity change, negative = inhibition: at 53.6 µM (top of the series)
# How it was run: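 ROR gamma transcriptional activity was tracked as Gal4-UAS luciferase output in stably transfected Drosophila Schneider cells, with compound added 1 hr before 700 uM copper sulfate induction and a 20 hr ambient-temperature incubation.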
# % is scaled to controls: 0 for no effect and ±100 for the full control effect; potency is read from the fitted curve at half-maximal effect.
Compound,Potency,"activity change, negative = inhibition"
Cc1ccc(CN2CCN(/N=C/c3ccc(O)c(O)c3)CC2)cc1,"inconclusive: 7.08 µM [inhibitor, full curve, poor fit]",
COC(=O)/C=C1/N/C(=N\c2nc(C)cc(C)n2)N(c2ccc(Cl)cc2)C1=O,"inconclusive: 12.6 µM [inhibitor, single point]",
C=CCn1c(=S)[nH]c2cc(C(=O)Nc3ccc(OC)c(OC)c3)ccc2c1=O,"inconclusive: 7.94 µM [inhibitor, partial curve]",
Cc1cc(C)cc(NC(=S)NC2CC3CCCC(C2)N3CC(C)C)c1 (stereo not given),"inconclusive: 3.55 µM [inhibitor, full curve, poor fit]",
Cc1ccc(NC(=O)Nc2ccccc2C(N)=O)cc1,,inactive: 15.6%
CCOc1ccc(NC(=O)C(C)Oc2ccccc2C(=O)Nc2ccc(C)c(Cl)c2)cc1 (stereo not given),"inconclusive: 15.8 µM [activator, single point]",
COc1cc(-c2nc3cnccn3c2Nc2ccc3c(c2)OCCO3)ccc1O,,inactive: -14.4%
Cc1cc(NC(=O)c2cc(-c3ccccc3C)nc3ccccc23)no1,,inactive: -8.7%
O=C(NN=C1CCCCCCC1)c1ccc(F)cc1,"inconclusive: 20 µM [inhibitor, single point]",
CCC(Oc1ccccc1)C(=O)Nc1nnc(C(F)(F)F)s1 (stereo not given),"inconclusive: 35.5 µM [activator, single point]",
Cc1ccc(S(=O)(=O)N2CCN(S(=O)(=O)N3CCC(C)CC3)CC2)cc1C,,inactive: -16.4%
CCc1[nH]nc(C(=O)N2CCCC(Nc3ccc(C(C)C)cc3)C2)c1C (stereo not given),"inconclusive: 12.6 µM [activator, single point]",
Cc1ccc(CN2CCN(CC(=O)NC(C)CCc3ccccc3)C2=O)cc1 (stereo not given),"inconclusive: 28.2 µM [inhibitor, single point]",
CN(c1ccccc1)S(=O)(=O)c1ccc(C(=O)N2CCc3ccccc3C2)cc1,"inconclusive: 3.16 µM [inhibitor, partial curve]",
Nc1nn(-c2ccccc2)nc1C(=O)OCc1ccccc1F,"inconclusive: 17.8 µM [activator, single point]",
COc1ccc(-c2coc3c(O)c(OC)ccc3c2=O)cc1,"inconclusive: 17.8 µM [inhibitor, single point]",
O=C(COc1c(Br)cc(Br)c2cccnc12)N1CCc2ccccc2C1,active: 5.62 µM,
Cc1ccc(-n2c(=S)[nH]c3sc4c(c3c2=O)CCC4)cc1,active: 1.12 µM,
CC(C)CC(=O)Nc1sc2c(c1C#N)CC(C)(C)NC2(C)C,"inconclusive: 12.6 µM [activator, single point]",
CCOC(=O)C(NC(=O)c1ccccc1Cl)(Nc1sc2c(c1C(N)=O)CCC2)C(F)(F)F (stereo not given),"inconclusive: 35.5 µM [inhibitor, single point]",
CNC(=O)C1CC(=O)N(CCc2ccc(OC)cc2)C(=Nc2ccc(OC)cc2)S1 (stereo not given),"inconclusive: 0.355 µM [activator, full curve, poor fit]",
c1ccc(N/N=C(\Cc2ncc[nH]2)c2ccccc2)cc1,"inconclusive: 35.5 µM [inhibitor, single point]",
COc1ccccc1OCc1nc(-c2ccc([N+](=O)[O-])cc2)no1,"inconclusive: 35.5 µM [activator, single point]",
CCOC(=O)c1cc(-c2ccccc2)nn1CCC#N,,inactive: 24.9%

Compound,Potency,"activity change, negative = inhibition"
CNc1nc2c(N)ncnc2n1[C@H]1O[C@@H](CO)[C@H](O)[C@@H]1O,"inconclusive: 5.01 µM [activator, full curve, poor fit]",
Cc1ccc(CNC(=O)[C@H](C)[C@H]2C[C@]2(C)[C@H](NC(=O)OCc2ccccc2)c2ccccc2)o1,"inconclusive: 35.5 µM [inhibitor, single point]",
COc1ccc(N(C(=O)COc2cccc(C)c2)S(=O)(=O)c2ccc(C)cc2)cc1,"inconclusive: 28.2 µM [activator, single point]",
CC(C)CN1C(=O)c2ccccc2C1(O)Cc1ccccc1 (stereo not given),"inconclusive: 35.5 µM [inhibitor, single point]",
O=C(N/N=C/c1sc2ccccc2c1O)c1ccccc1,active: 1.78 µM,
CCC(=O)N1CCN(c2ccc(NC(=S)NC(=O)C(C)C)cc2)CC1,"inconclusive: 35.5 µM [inhibitor, single point]",
CCOc1ccc(C(C)NC(=S)NCc2ccc(Cl)cc2)cc1 (stereo not given),active: 0.794 µM,
Cc1ccc(C2CC(c3cccs3)=NN2C(=O)c2ccc(Br)o2)cc1 (stereo not given),"inconclusive: 3.98 µM [inhibitor, single point]",
CC(=O)N1c2ccc(S(=O)(=O)N3CCCC3)cc2CC1C(=O)NC(C)C (stereo not given),,inactive: -0.0812%
Brc1ccccc1-c1nnc(COc2ncnc3c2cnn3-c2ccccc2)o1,"inconclusive: 35.5 µM [activator, single point]",
CCOC(=O)c1c(NC(=O)CSc2nnc3c(Cl)cc(Cl)cn23)sc2c1CCC2,"inconclusive: 20 µM [activator, partial curve, poor fit]",
COc1cccc(-c2nc(CS(=O)(=O)CC(=O)NCCc3ccccc3)c(C)o2)c1,,inactive: 2.58%
CCOc1ccc(-n2c(O)c(/C=N/Nc3nc(C)cc(C)n3)c3ccccc3c2=O)cc1,"inconclusive: 35.5 µM [inhibitor, single point]",
O=C(CSc1nnc(-c2ccccc2F)o1)OCc1ccccc1,"inconclusive: 8.91 µM [activator, partial curve]",
CC1(C)CC(=O)C(C=NCCN2CCN(C(=O)C34CC5CC(CC(C5)C3)C4)CC2)=C(O)C1,"inconclusive: 11.2 µM [inhibitor, single point]",
CCOc1ccc2c(c1)nc(SCC(=O)c1ccc(Br)s1)n2C,active: 14.1 µM,
CC1Oc2ccccc2N(CC(=O)N2CCCCCC2)C1=O (stereo not given),,inactive: 3.8%
O=C(O)c1ccc(Nc2nc(-c3ccccc3)nc3ccccc23)cc1,,inactive: -0.107%
O=C(NNC(=O)c1cccs1)c1ccc(Br)cc1,,inactive: 0.207%
O=C(Nc1cccnc1)OC1CCCCC1,"inconclusive: 10 µM [activator, partial curve]",
COC(=O)C1=C(CSc2nc3c(cc2C#N)CN(C)CC3)OC(N)=C(C#N)C1c1ccccc1F (stereo not given),"inconclusive: 35.5 µM [inhibitor, single point]",
O=S(=O)(Nc1nc2ccccc2nc1-[n+]1cccc(N=C([O-])c2ccc(Cl)cc2)c1)c1ccccc1,"inconclusive: 11.2 µM [activator, partial curve]",
Cc1ccc(NC(=S)NCC(C)CSc2ccc(Cl)cc2)cc1 (stereo not given),active: 2.82 µM,
COc1cccc(C(=O)N2CCN(Cc3ccccn3)CC2)c1OC,,inactive: 12%

Compound,Potency,"activity change, negative = inhibition"
O=C(Nc1cccc(O)c1)c1cnn2cccnc12,"inconclusive: 1.41 µM [activator, partial curve]",
CN1C2CCC1CC(OC(c1ccccc1)c1ccccc1)C2 (stereo not given),"inconclusive: 2 µM [inhibitor, partial curve]",
CCCn1cnc2cc(NCc3cccc(OC)c3O)ccc21,"inconclusive: 35.5 µM [inhibitor, single point]",
COc1ccc(C(NC(C)=O)c2cc(Cl)c3cccnc3c2O)cc1OC (stereo not given),active: 3.98 µM,
COc1cc(/C=C/c2nnc3c4ccccc4ncn23)cc(OC)c1OC,"inconclusive: 0.562 µM [activator, full curve]",
CN1CCN(C(=S)c2cn(Cc3ccccc3F)c3ccccc23)CC1,active: 11.2 µM,
O=C(O)Cc1csc(-c2ccc(F)cc2)n1,"inconclusive: 8.91 µM [activator, partial curve]",
COc1ccc(CC(=O)Nc2nc(-c3ccc(F)c(F)c3)cs2)cc1OC,"inconclusive: 3.98 µM [activator, partial curve]",
Cc1ccc(NC(=O)c2noc3c2CCc2ccccc2-3)cc1,,inactive: 31.9%
Cc1cc(C(=O)OCC(=O)Nc2cc(S(=O)(=O)N(C)C)ccc2C)c(C)o1,"inconclusive: 10 µM [activator, partial curve, poor fit]",
CC(=O)c1ccc(-c2ccc([C@H]3[C@H]4C=CC[C@@H](C)[C@@H]4C(=O)N3Cc3ccccc3)c(F)c2)cc1,"inconclusive: 20 µM [activator, single point]",
COc1ccc(N2CCN(C(=O)c3ccc(Br)cc3)CC2)c([N+](=O)[O-])c1,"inconclusive: 35.5 µM [activator, single point]",
COc1ccccc1NS(=O)(=O)c1cccc(C(=O)NCc2ccco2)c1,"inconclusive: 14.1 µM [activator, single point]",
CC1(C)Cc2c(c(N3CCOCC3)nc3sc4c(NN)ncnc4c23)CS1,active: 7.94 µM,
Cc1ccc(Cc2c(C)nc3nc(SCC(=O)NCCCN4CCCCC4)nn3c2C)cc1,,inactive: 0.177%
CNC(=S)N1CCc2cc(OC)c(OC)cc2C1COc1ccc(OC)cc1 (stereo not given),"inconclusive: 25.1 µM [inhibitor, single point]",
CC1(C)Cc2nc3sc4c(N(CCO)CCO)ncnc4c3cc2CO1,,inactive: 37.4%
COc1ccccc1/C=C/C(=O)NC(=S)NC(C)C,"inconclusive: 3.16 µM [activator, single point]",
Cc1ccc(NC(=S)/N=C(\N)Nc2nc(C)c3cc(C)c(C)cc3n2)cc1C,active: 2.24 µM,
COc1ccccc1CNC(=O)C(=O)NCC1OCCN1C(=O)c1ccc(Cl)cc1 (stereo not given),"inconclusive: 11.2 µM [activator, partial curve]",
O=C(NNS(=O)(=O)c1ccccc1)c1ccc(S(=O)(=O)N2CCCCC2)cc1,,inactive: 19.9%
CN1CC=C2C(C#N)=C(N)C(C#N)(C#N)C(Cc3ccccc3)C2C1 (stereo not given),"inconclusive: 2.82 µM [inhibitor, full curve]",
